The text below walks through data of paper PMC9482615.

Amino acid sequences for entries named in this document (tags omitted). A change or cut given only in a name is not applied to a line headed by its entry. Chains listed by the source or under a name are the forms on record and can include a tag or linker. Residues count along the entry.
UniProt O43791: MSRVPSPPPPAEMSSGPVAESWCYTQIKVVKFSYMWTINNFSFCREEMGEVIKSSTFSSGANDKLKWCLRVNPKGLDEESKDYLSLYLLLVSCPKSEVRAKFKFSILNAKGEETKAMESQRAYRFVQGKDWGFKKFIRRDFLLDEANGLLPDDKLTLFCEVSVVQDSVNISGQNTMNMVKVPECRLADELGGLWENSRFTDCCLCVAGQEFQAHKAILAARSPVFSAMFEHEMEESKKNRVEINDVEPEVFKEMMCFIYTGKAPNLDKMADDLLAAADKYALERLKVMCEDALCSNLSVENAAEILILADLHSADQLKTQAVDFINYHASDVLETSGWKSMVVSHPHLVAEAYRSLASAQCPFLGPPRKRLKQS
GST-tagged N-terminal deletion mutant of SPOP (GST-SPOPC): residues 173-297 of O43791
UniProt Q15672: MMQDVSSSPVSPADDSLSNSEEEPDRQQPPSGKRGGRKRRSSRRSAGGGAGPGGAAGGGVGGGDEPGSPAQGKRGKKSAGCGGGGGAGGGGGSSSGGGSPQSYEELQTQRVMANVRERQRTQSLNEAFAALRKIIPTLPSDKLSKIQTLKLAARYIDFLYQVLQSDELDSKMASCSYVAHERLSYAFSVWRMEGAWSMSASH

Results are given in words; binding and its absence hold for the method and conditions named. Binding seen in cells or lysates may run through a third protein. Some results given as binding are weak or reduced against the parent protein; the word gives no strength.

Assay [1] has as its target GST-tagged N-terminal deletion mutant of SPOP (GST-SPOPC) (UniProt O43791). Put plainly: pull-down; GST-SPOPN or GST-SPOPC on glutathione-sepharose 4B beads; proteins on the beads detected by western blotting; source of TWIST1 not stated.
Assay [2] concerns the target speckle-type POZ protein (SPOP), endogenous (UniProt O43791). Nature of the assay: co-IP; endogenous proteins; IP with a TWIST1 antibody or an SPOP antibody, then western blotting; cell line not stated.
Assay [3] addresses TWIST1, endogenous (UniProt Q15672). The description is as above.

Take “TWIST1 used in the GST pull-down (from UniProt Q15672 1-202)”: the binding entry in assay [1] was “no binding”. On to “TWIST1, endogenous (from UniProt Q15672 1-202)”, for which the binding result in assay [2] is listed as “binds”. Take “speckle-type POZ protein (SPOP), endogenous (from UniProt O43791 1-374)”: in assay [3], the binding entry is recorded as “binds”.
